This note sets out measurements from article PMC12351941.

This experiment has as its target T1, Murine double minute 4 (MDM4) (rat (endogenous in H9C2)) (UniProt Q5XIN1).
T1 sequence: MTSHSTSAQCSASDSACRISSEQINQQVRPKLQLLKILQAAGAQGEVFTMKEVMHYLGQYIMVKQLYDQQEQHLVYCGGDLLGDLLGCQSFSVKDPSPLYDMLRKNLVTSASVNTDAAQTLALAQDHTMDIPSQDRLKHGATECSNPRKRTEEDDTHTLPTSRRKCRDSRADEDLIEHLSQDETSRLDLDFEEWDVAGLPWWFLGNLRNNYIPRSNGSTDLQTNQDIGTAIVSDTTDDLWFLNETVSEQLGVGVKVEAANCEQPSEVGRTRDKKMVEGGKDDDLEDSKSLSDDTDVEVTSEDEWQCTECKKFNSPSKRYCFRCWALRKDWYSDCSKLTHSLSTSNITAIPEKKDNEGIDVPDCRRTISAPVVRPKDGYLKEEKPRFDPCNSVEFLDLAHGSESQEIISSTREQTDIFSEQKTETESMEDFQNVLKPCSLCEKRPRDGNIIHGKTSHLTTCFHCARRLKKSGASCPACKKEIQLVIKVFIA
As to the kind of experiment: co-IP; H9C2 lysates (cells with 1 uM Dox for 24 h or control medium) incubated overnight at 4 °C with Protein A magnetic beads pre-coated with anti-MDM4 antibody or IgG; immunoblot of USP8 and MDM4. (In general: Immunoblotting shows a protein as a band on a membrane.)

Results are given in words; binding and its absence hold for the method and conditions named. In cells and extracts the contact can be indirect. Some entries that bind do so weakly or less than the wild type.

B1: Ubiquitin-specific protease 8 (USP8) (enzyme, UniProt D3ZN39 1-1081)
chain: MPAVASVPKELYLSSSLKDLNKKTEVKPEKTSTKNYIHSAQKIFKAAEECRLDRDEERAYVLYMKYVAVYNLIKKRPDFKQQQDYYLSILGPANIKKAIEEAERLSESLKLRYEEAEVRKQLEEKDRREEEQLQQQKRQEMGREDSGAAAKRSVENLLDSKTKIQRVNGEKSEGGAAAERGAVTAKELYTMMMDKNTSLIIMDARKIQDYQHSCILGSLSVPEEAISPGVTANWIEAKLSDDSKDTWKKRGSVDYVVLLDWFSSAKDLLLGTTLRSLKDALFKWESKAVLHHEPLVLEGGYENWLLCYPQFTTNAKVTPPPRSRPEEVSVSLDFTYPSLEEPVPSKLPAQMPPPPLEANEKAQLVTDQDGKPRPLVQSALAGPSVAPKAEASPIIQPVPATKNVPQVDRTKKPAVKLPEDHRMKSESTDQSGRVLSDRSTKPVFTSPATMLTDEEKARIHEETALLMEKNRQEKELWERQQKEQKEKLRREEQERKAGKTQDAEERDFTENQHKAKDGQEKRDSKQTKAEDREPPADGAQDATGTQRQSKSEHDASDAKVSVEGKRCPMSEVQKRPADVSSASSMSGELSAGKAQREPLTRARSEEMGRIVPGLPLGWAKFLDPITGTFRYYHSPTNTVHMYPPEMAPSSVPPSTPPTHKVKPQIPAERDREPSKLKRSYSSPDITQALQEEEKRRPAVTPTVNRENKPPCYPKAEISRLSASQIRNLNPVFGGSGPALTGLRNLGNTCYMNSILQCLCNAPHLADYFNRNCYQDDINRSNLLGHKGEVAEEFGIIMKALWTGQYRYISPKDFKVTIGKINDQFAGSSQQDSQELLLFLMDGLHEDLNKADNRKRHKEENNDHLDDFKAAEHAWQKHKQLNESIIVALFQGQFKSTVQCLTCHKKSRTFEAFMYLSLPLASTSKCTLQDCLRLFSKEEKLTDNNRFYCSHCRARRDSLKKIEIWKLPPVLLVHLKRFSYDGRWKQKLQTSVDFPLENLDLSQYVIGPKSSLKKYNLFSVSNHYGGLDGGHYTAYCKNAARQRWFKFDDHEVSDISVSSVRSSAAYILFYTSLGPRVTEAAT
In the case of B1, the binding entry is “binds”.
